From patent US7259266B2, “Benzopyran compounds useful for treating inflammatory conditions” (Pharmacia Corporation, priority 2003, dated 2007) come the findings set out here.

Protein sequences, listed by entry. Tags and fused reporters are not part of them. Residues count along the entry.
UniProt P23219, 24-599 limits assumed: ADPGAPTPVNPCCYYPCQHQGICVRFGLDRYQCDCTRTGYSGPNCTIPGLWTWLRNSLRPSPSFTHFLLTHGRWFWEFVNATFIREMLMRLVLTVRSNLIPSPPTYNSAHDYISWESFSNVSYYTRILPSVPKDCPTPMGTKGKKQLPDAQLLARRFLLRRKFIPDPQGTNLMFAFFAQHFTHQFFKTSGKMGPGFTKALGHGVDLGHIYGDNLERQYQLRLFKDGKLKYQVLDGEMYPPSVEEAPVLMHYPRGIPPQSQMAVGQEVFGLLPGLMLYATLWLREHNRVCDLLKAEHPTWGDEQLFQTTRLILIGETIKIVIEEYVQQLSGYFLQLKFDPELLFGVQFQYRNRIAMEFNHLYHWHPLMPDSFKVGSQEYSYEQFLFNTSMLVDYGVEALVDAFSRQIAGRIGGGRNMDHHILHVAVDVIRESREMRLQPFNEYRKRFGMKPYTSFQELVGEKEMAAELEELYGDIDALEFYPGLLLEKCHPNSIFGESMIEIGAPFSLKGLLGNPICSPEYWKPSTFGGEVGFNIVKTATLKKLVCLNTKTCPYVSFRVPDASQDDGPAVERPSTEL

For this test, the target named is COX-1 (Homo sapiens, UniProt P23219). In words: Assay for COX-1 activity (PGE2 formed, ELISA). To be noted: read-out: hCox-1 IC50; recombinant hCox-1; compounds pre-incubated 10-20 minutes, reaction stopped after ten minutes; pH 8.0.

Several values for one entry are separate records, joined by “and”; a condition that tells them apart may be missing. Equal values may be shown once. Structures were worked out from names or drawings and are uncertain.

With `O=C(O)C1=Cc2cc(-c3cccc([N+](=O)[O-])c3)ccc2OC1C(F)(F)F` (stereo not shown), the IC50 (usually the point on the concentration scale where inhibition reaches its midpoint) was 61.4 µM and 41.1 µM.
